Values from PubChem BioAssay AID1259425 (University of Nebraska Medical Center, 2018)
Aim: 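Seek colon cancer weak points whose silencing resembles KSR1 loss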 (primary screen). System: HCT116 human colon cancer cells. Reagents: siRNA pool against human genes, 50 nM siRNA. Read-out: 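mRNA of six signature genes measured together by branched-DNA assay after 50 nM siRNA pool, blank removed, divided by geometric mean of two housekeeping genes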. Reading the numbers: BNIP3L mRNA: higher = more BNIP3L transcript after knockdown; NDRG1 mRNA: higher = more NDRG1 transcript after knockdown; BNIP3 mRNA: higher = more BNIP3 transcript after knockdown; ALDOC mRNA: higher = more ALDOC transcript after knockdown; ACSL5 mRNA: higher = more ACSL5 transcript after knockdown.
The whole screen tested about 14,000 reagents; below is a part drawn at random. Not stated in the record: the time to read-out.

gene knocked down,"BNIP3L mRNA, set 1","NDRG1 mRNA, set 1","BNIP3 mRNA, set 1","ALDOC mRNA, set 1","ACSL5 mRNA, set 1"
CRABP2,0.0459,0.0703,0.324,0.0236,0.0346
MAP3K3,0.036,0.0447,0.228,0.00606,0.198
TPSB2,0.0911,0.168,0.25,0.0229,0.115
ZNF180,0.121,0.226,0.255,0.051,0.132
CEND1,0.0981,0.372,0.726,0.0089,0.164
DMD,0.0718,0.233,0.255,0.0445,0.149
SCRIB,0.133,0.0926,0.346,0.00965,0.124
REPS2,0.09,0.18,0.275,0.0119,0.111
POU3F3,0.0624,0.237,0.256,0.00902,0.193
PGAP2,0.0846,0.314,0.176,0.0172,0.177
FBXL3,0.0869,0.1,0.211,0.0252,0.173
CDC42BPA,0.0443,0.235,0.568,0.00395,0.0901
ELMO3,0.117,0.486,0.279,0.0331,0.346
CALY,0.138,0.247,0.263,0.0154,0.151
PRKCD,0.0849,0.447,0.419,0.000848,0.308
VIT,0.0925,0.208,0.243,0.039,0.0746
ALS2,0.0591,0.068,0.231,0.0148,0.103
LSM7,0.177,0.462,0.242,0.00796,0.162
DCAF13,0.0957,0.113,0.562,0.0167,0.121
GNRH1,0.0722,0.0513,0.184,0.0155,0.0823
PTGER3,0.388,0.577,0.881,0.101,0.231
SH2D2A,0.177,0.177,0.364,0.0527,0.193
STK3,0.227,0.107,0.649,0.00792,0.299
SIGLEC11,0.108,0.126,0.293,0.00876,0.359
TXNDC2,0.261,0.209,0.322,0.0738,0.346
CCDC88A,0.103,0.16,0.281,0.0147,0.151
GNGT2,0.0364,0.208,0.224,0.0228,0.11
TFCP2,0.0642,0.346,0.235,0.027,0.157
ATP6V0C,0.226,0.788,0.81,0.236,0.132

Part of the list above, set out differently.
CEND1 | BNIP3L mRNA, set 1: 0.0981; NDRG1 mRNA, set 1: 0.372; BNIP3 mRNA, set 1: 0.726; ALDOC mRNA, set 1: 0.0089; ACSL5 mRNA, set 1: 0.164
DMD | BNIP3L mRNA, set 1: 0.0718; NDRG1 mRNA, set 1: 0.233; BNIP3 mRNA, set 1: 0.255; ALDOC mRNA, set 1: 0.0445; ACSL5 mRNA, set 1: 0.149
SCRIB | BNIP3L mRNA, set 1: 0.133; NDRG1 mRNA, set 1: 0.0926; BNIP3 mRNA, set 1: 0.346; ALDOC mRNA, set 1: 0.00965; ACSL5 mRNA, set 1: 0.124
REPS2 | BNIP3L mRNA, set 1: 0.09; NDRG1 mRNA, set 1: 0.18; BNIP3 mRNA, set 1: 0.275; ALDOC mRNA, set 1: 0.0119; ACSL5 mRNA, set 1: 0.111

Continued.
gene knocked down,"BNIP3L mRNA, set 1","NDRG1 mRNA, set 1","BNIP3 mRNA, set 1","ALDOC mRNA, set 1","ACSL5 mRNA, set 1"
NSD3,0.142,0.0776,0.229,0.0569,0.0572
MAPK6,0.079,0.151,0.271,0.0114,0.189
ISLR2,0.0903,0.0795,0.346,0.0282,0.0827
E4F1,0.0268,0.0658,0.242,0.0137,0.16
CYP4F12,0.15,0.612,0.304,0.0383,0.374
NIF3L1,0.111,0.275,0.496,0.0474,0.307
CUL4A,0.0653,0.088,0.221,0.0227,0.17
SCN3A,0.046,0.143,0.234,0.0206,0.146
PPIA,0.104,0.242,0.358,0.0191,0.0754
KCNK7,0.049,0.0475,0.247,0.0379,0.0541
OR10H1,0.101,0.202,0.286,0.0106,0.161
TPD52L2,0.0937,0.178,0.269,0.0152,0.078
USB1,0.0622,1.14,0.711,0.13,0.515
CCNE2,0.0759,0.098,0.254,0.0187,0.11
CXCL16,0.071,0.27,0.344,0.0332,0.248
FZD6,0.314,0.495,0.855,0.0871,0.166
SNTG2,0.141,0.267,0.264,0.00832,0.127
H3-4,0.208,0.381,0.559,0.0216,0.418
FUBP3,0.12,0.116,0.255,0.0226,0.127
IARS2,0.112,0.172,0.33,0.0261,0.154
CNGA1,0.216,0.0904,0.378,0.0561,0.139
